Test results: paper PMC11637765
Results are given in words; binding and its absence hold for the method and conditions named. In cells and extracts the contact can be indirect. Some binding calls cover weakened binding; strength is not graded here. For some assays here: Tags and fused reporters may be left off the sequences shown.

Key:
[1] = target: GWY10 (Grain Weight and Yield on Chromosome 10), a conserved actin protein, as the split-LUC fusion (rice (Oryza sativa L.)) (UniProt A3C6D7); assay: split reporter; split-LUC (split luciferase complementation) assay, screen of GWY10 against cyclin-related proteins; conditions not shown (supplementary methods)
[2] = target: GWY10 (Grain Weight and Yield on Chromosome 10), a conserved actin protein, as used in the pull-down assay (rice (Oryza sativa L.)) (UniProt A3C6D7); assay: pull-down; pull-down assay of GWY10 and CDKB2; which protein was the bait and the conditions were not shown (supplementary methods)

| binding [1] | binding [2] | Binder |
| --- | --- | --- |
| binds | – | CDKB2, cyclin-dependent kinase, as the split-LUC fusion (protein, UniProt Q0J4I1 1-326) MAALHHQAAAAPVTTTTDGGELRAMDLYEKLEKVGEGTYGKVYKAREKATGRIVALKKTRLPEDDEGVPPTALREVSLLRMLSQDSHVVRLLDLKQGQNKEGQTILYLVFEYMDTDLKKFIRAHRQNLQKIPVPTVKILMYQLCKGVAFCHGRGVLHRDLKPHNLLMDRKTMALKIADLGLSRSFTVPLKKYTHEILTLWYRAPEVLLGAAHYSTPVDIWSVGCIFAELATNQPLFAGDSEVQQLLHIFKLLGTPNEQVWPGVSKLPNWHEYPQWNPSKVSDLVHGLDADALDLLEKMLQYEPSKRISAKKAMEHPYFNDVNKELY |
| – | binds | CDKB2, cyclin-dependent kinase, as used in the pull-down assay (protein, UniProt Q0J4I1 1-326) MAALHHQAAAAPVTTTTDGGELRAMDLYEKLEKVGEGTYGKVYKAREKATGRIVALKKTRLPEDDEGVPPTALREVSLLRMLSQDSHVVRLLDLKQGQNKEGQTILYLVFEYMDTDLKKFIRAHRQNLQKIPVPTVKILMYQLCKGVAFCHGRGVLHRDLKPHNLLMDRKTMALKIADLGLSRSFTVPLKKYTHEILTLWYRAPEVLLGAAHYSTPVDIWSVGCIFAELATNQPLFAGDSEVQQLLHIFKLLGTPNEQVWPGVSKLPNWHEYPQWNPSKVSDLVHGLDADALDLLEKMLQYEPSKRISAKKAMEHPYFNDVNKELY |
